# Measurements as given in the supplement of paper PMC8728848.
# The other results are listed elsewhere or left out.
# B1: Layilin (Mus musculus), Q8C351 (protein)
# chain: MQPGAALQAMLLAVLLAKPRDSKGRLLSASDLDPRGGQLVCRGGTRRPCYKVIYFHDAFQRLNFEEAKETCMEDGGQLVSIETEDEQRLIEKFIENLLASDGDFWIGLKRLEEKQSNNTACQDLYAWTDGSTSQFRNWYVDEPSCGSEVCVVMYHQPSAPPGIGGSYMFQWNDDRCNMKNNFICKYHDDKPSTTPSIWPGGEATEPATPLLPEETQKEDTKETFKERREAALNLAYILIPSIPLFLLLVVTSAVCWVWICRRKREQTDPSTKEQHTIWPTPRQENSPNLDVYNVIRKQSEADLAEPRPDLKNISFRVCSGEAMPDDMSCDYENIAVNPSESGFVTLASMESGFVTNDIYEFSPDRMGRSKESGWVENEIYY
# Legend:
# Assay in all cases: glycan array binding signal (z-score within array); higher = stronger binding
# Settings in all cases: glycan notation: IUPAC condensed, linker removed
# [1] = target: Fuc(a1-2)Gal
# Summary of the method: (§1)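 The binding signal is a Z-score computed within each array. Data were drawn from 3228 arrays in the Consortium for Functional Glycomics database, restricted to those with a known protein sequence. Scores were averaged over arrays of the same protein sequence at different concentrations or buffers, and over linkers, and negative values can be taken as non-binding.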
# [2] = target: Fuc(a1-2)Gal(b1-3)GalNAc
# Summary of the method: as §1
# [3] = target: Fuc(a1-2)Gal(b1-3)GalNAc(a1-3)[Fuc(a1-2)]Gal(b1-4)Glc
# Summary of the method: as §1
# [4] = target: Fuc(a1-2)Gal(b1-3)GalNAc(a1-3)[Fuc(a1-2)]Gal(b1-4)GlcNAc
# Summary of the method: as §1
# [5] = target: Fuc(a1-2)Gal(b1-3)GalNAc(b1-3)Gal
# Summary of the method: as §1
# [6] = target: Fuc(a1-2)Gal(b1-3)GalNAc(b1-3)Gal(a1-4)Gal(b1-4)Glc
# Summary of the method: as §1
# [7] = target: Fuc(a1-2)Gal(b1-3)GalNAc(b1-4)[Neu5Ac(a2-3)]Gal(b1-4)Glc
# Summary of the method: as §1
# [8] = target: Fuc(a1-2)Gal(b1-3)GlcNAc
# Summary of the method: as §1
# [9] = target: Fuc(a1-2)Gal(b1-3)GlcNAc(b1-2)Man(a1-3)[Fuc(a1-2)Gal(b1-3)GlcNAc(b1-2)Man(a1-6)]Man(b1-4)GlcNAc(b1-4)GlcNAc
# Summary of the method: as §1
# [10] = target: Fuc(a1-2)Gal(b1-3)GlcNAc(b1-2)Man(a1-3)[Fuc(a1-2)Gal(b1-3)GlcNAc(b1-2)Man(a1-6)]Man(b1-4)GlcNAc(b1-4)[Fuc(a1-6)]GlcNAc
# Summary of the method: as §1
# [11] = target: Fuc(a1-2)Gal(b1-3)GlcNAc(b1-3)Gal(b1-4)Glc
# Summary of the method: as §1
# [12] = target: Fuc(a1-2)Gal(b1-3)GlcNAc(b1-3)GalNAc
# Summary of the method: as §1
# [13] = target: Fuc(a1-2)Gal(b1-3)GlcNAc(b1-3)[Fuc(a1-3)[Gal(b1-4)]GlcNAc(b1-6)]Gal(b1-4)Glc
# Summary of the method: as §1
# [14] = target: Fuc(a1-2)Gal(b1-3)GlcNAc(b1-3)[Gal(b1-4)GlcNAc(b1-6)]Gal(b1-4)Glc
# Summary of the method: as §1
# [15] = target: Fuc(a1-2)Gal(b1-3)GlcNAc(b1-3)[Neu5Ac(a2-6)Gal(b1-4)GlcNAc(b1-6)]Gal(b1-4)Glc
# Summary of the method: as §1
# [16] = target: Fuc(a1-2)Gal(b1-3)[Fuc(a1-4)]GlcNAc
# Summary of the method: as §1
# [17] = target: Fuc(a1-2)Gal(b1-3)[Fuc(a1-4)]GlcNAc(b1-2)Man(a1-3)[Fuc(a1-2)Gal(b1-3)[Fuc(a1-4)]GlcNAc(b1-2)Man(a1-6)]Man(b1-4)GlcNAc(b1-4)GlcNAc
# Summary of the method: as §1
# [18] = target: Fuc(a1-2)Gal(b1-3)[Fuc(a1-4)]GlcNAc(b1-3)[Fuc(a1-3)[Gal(b1-4)]GlcNAc(b1-6)]Gal(b1-4)Glc
# Summary of the method: as §1
# [19] = target: Fuc(a1-2)Gal(b1-3)[Fuc(a1-4)]GlcNAc(b1-3)[Gal(b1-4)GlcNAc(b1-6)]Gal(b1-4)Glc
# Summary of the method: as §1
# [20] = target: Fuc(a1-2)Gal(b1-4)Glc
# Summary of the method: as §1
# [21] = target: Fuc(a1-2)Gal(b1-4)Glc6S
# Summary of the method: as §1
# [22] = target: Fuc(a1-2)Gal(b1-4)GlcNAc
# Summary of the method: as §1
# [23] = target: Fuc(a1-2)Gal(b1-4)GlcNAc(b1-2)Man(a1-3)[Fuc(a1-2)Gal(b1-4)GlcNAc(b1-2)Man(a1-6)]Man(b1-4)GlcNAc(b1-4)GlcNAc
# Summary of the method: as §1
# [24] = target: Fuc(a1-2)Gal(b1-4)GlcNAc(b1-2)Man(a1-3)[Fuc(a1-2)Gal(b1-4)GlcNAc(b1-2)Man(a1-6)]Man(b1-4)GlcNAc(b1-4)[Fuc(a1-6)]GlcNAc
# Summary of the method: as §1
# [25] = target: Fuc(a1-2)Gal(b1-4)GlcNAc(b1-2)[Fuc(a1-2)Gal(b1-4)GlcNAc(b1-4)]Man(a1-3)[Fuc(a1-2)Gal(b1-4)GlcNAc(b1-2)Man(a1-6)]Man(b1-4)GlcNAc(b1-4)GlcNAc
# Summary of the method: as §1
# [26] = target: Fuc(a1-2)Gal(b1-4)GlcNAc(b1-3)Gal(b1-4)GlcNAc
# Summary of the method: as §1
# [27] = target: Fuc(a1-2)Gal(b1-4)GlcNAc(b1-3)Gal(b1-4)GlcNAc(b1-3)Gal(b1-4)GlcNAc
# Summary of the method: as §1
# [28] = target: Fuc(a1-2)Gal(b1-4)GlcNAc(b1-3)GalNAc
# Summary of the method: as §1
# [29] = target: Fuc(a1-2)Gal(b1-4)GlcNAc(b1-3)[Fuc(a1-2)Gal(b1-4)GlcNAc(b1-6)]GalNAc
# Summary of the method: as §1
# [30] = target: Fuc(a1-2)Gal(b1-4)GlcNAc6S
# Summary of the method: as §1
binder,measurement,setting,value
B1,glycan array binding signal (z-score),[1],-0.301
same,glycan array binding signal (z-score),[2],0.577
same,glycan array binding signal (z-score),[3],-0.074
same,glycan array binding signal (z-score),[4],0.776
same,glycan array binding signal (z-score),[5],0.197
same,glycan array binding signal (z-score),[6],0.113
same,glycan array binding signal (z-score),[7],-0.101
same,glycan array binding signal (z-score),[8],0.69
same,glycan array binding signal (z-score),[9],0.094
same,glycan array binding signal (z-score),[10],0.439
same,glycan array binding signal (z-score),[11],-0.956
same,glycan array binding signal (z-score),[12],-0.519
same,glycan array binding signal (z-score),[13],-0.407
same,glycan array binding signal (z-score),[14],0.69
same,glycan array binding signal (z-score),[15],-0.723
same,glycan array binding signal (z-score),[16],-0.947
same,glycan array binding signal (z-score),[17],0.431
same,glycan array binding signal (z-score),[18],-0.783
same,glycan array binding signal (z-score),[19],0.053
same,glycan array binding signal (z-score),[20],0.001
same,glycan array binding signal (z-score),[21],-0.382
same,glycan array binding signal (z-score),[22],-0.44
same,glycan array binding signal (z-score),[23],-0.025
same,glycan array binding signal (z-score),[24],0.674
same,glycan array binding signal (z-score),[25],0.284
same,glycan array binding signal (z-score),[26],-0.443
same,glycan array binding signal (z-score),[27],-0.05
same,glycan array binding signal (z-score),[28],0.468
same,glycan array binding signal (z-score),[29],-0.862
same,glycan array binding signal (z-score),[30],-0.891

# Part of the list above, tab-delimited:
binder	measurement	setting	value
B1	glycan array binding signal (z-score)	[11]	-0.956
same	glycan array binding signal (z-score)	[12]	-0.519
